Assay [1] addresses T1, YTHDF1 (human (endogenous in A549)), Q9BYJ9.
T1 chain: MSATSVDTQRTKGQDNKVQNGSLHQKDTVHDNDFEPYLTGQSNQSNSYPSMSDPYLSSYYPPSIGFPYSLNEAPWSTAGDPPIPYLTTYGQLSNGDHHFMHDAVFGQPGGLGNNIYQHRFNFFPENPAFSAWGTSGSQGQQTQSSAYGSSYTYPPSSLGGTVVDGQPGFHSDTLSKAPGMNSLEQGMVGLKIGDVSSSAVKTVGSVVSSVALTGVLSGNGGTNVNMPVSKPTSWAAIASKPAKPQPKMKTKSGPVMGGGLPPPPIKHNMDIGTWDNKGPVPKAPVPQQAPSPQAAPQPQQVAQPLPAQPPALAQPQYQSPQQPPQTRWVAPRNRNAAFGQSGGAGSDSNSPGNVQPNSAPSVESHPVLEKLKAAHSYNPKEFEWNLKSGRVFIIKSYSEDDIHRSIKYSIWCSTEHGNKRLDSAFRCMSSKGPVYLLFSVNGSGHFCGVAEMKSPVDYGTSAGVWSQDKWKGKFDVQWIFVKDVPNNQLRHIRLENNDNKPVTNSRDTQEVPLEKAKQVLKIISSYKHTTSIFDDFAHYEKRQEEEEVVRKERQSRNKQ
Nature of the assay: co-IP; lysates of A549 and H1299 cells transfected with YTHDF1 or YTHDF2; immunoprecipitation with YTHDF2 or YTHDF1 antibody, respectively; blot for YTHDF3. The following applies: remark: other sources report otherwise.

The target in assay [2] is T1, YTHDF1 (human (endogenous in A549)), …. As to the kind of experiment: co-IP; endogenous co-IP from A549 cell lysates, immunoprecipitation with an antibody against either partner, western blot; for YTHDF1/2 with YTHDF3 also in cells transfected with shALKBH5 or ALKBH5 (interaction not affected). The following applies: remark: other sources report otherwise. In general terms: A western blot detects proteins with antibodies after separation by electrophoresis.

The target in assay [3] is T2, YTHDF3 (human (endogenous in A549)), Q7Z739.
T2 chain: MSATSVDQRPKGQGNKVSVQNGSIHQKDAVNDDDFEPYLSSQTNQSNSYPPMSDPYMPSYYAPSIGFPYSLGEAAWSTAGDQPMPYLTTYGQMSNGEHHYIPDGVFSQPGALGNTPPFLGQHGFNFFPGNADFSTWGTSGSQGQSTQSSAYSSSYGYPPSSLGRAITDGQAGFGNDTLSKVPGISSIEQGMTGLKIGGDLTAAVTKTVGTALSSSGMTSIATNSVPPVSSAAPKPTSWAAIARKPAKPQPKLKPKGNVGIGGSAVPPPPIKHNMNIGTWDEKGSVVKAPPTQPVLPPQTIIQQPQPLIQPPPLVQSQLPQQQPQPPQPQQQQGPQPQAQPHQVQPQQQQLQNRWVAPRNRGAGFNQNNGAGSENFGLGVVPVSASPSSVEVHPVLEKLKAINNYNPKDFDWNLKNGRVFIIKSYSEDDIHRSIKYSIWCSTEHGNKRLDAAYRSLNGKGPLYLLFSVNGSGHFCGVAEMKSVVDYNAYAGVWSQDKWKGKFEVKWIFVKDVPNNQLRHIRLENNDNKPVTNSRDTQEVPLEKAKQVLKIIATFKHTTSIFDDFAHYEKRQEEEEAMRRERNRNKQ
Described as above. The note with it: remark: other sources report otherwise.

Assay [4] addresses T3, YTHDF3 (human (endogenous in A549)) (UniProt Q7Z739).
T3 sequence: T2 chain
Nature of the assay: co-IP; lysates of A549 and H1299 cells transfected with YTHDF1 or YTHDF2; immunoprecipitation with YTHDF2 or YTHDF1 antibody, respectively; blot for YTHDF3.

The results in this text go back to paper PMC7045432.

Results are given in words; binding and its absence hold for the method and conditions named. In cells and extracts the contact can be indirect. Some entries that bind do so weakly or less than the wild type.

B1: YTHDF3, Q7Z739 1-585 (protein)
chain: T2 chain
As to B1, the binding result in assay [1] and in assay [2] was “binds” in each case.

B2: YTHDF1, Q9BYJ9 1-559 (protein)
chain: T1 chain
For the molecule B2, in assay [3], the binding entry is recorded as “binds”.

B3: YTHDF1, overexpressed from pcDNA 3.1 (protein, UniProt Q9BYJ9 2-559)
chain: SATSVDTQRTKGQDNKVQNGSLHQKDTVHDNDFEPYLTGQSNQSNSYPSMSDPYLSSYYPPSIGFPYSLNEAPWSTAGDPPIPYLTTYGQLSNGDHHFMHDAVFGQPGGLGNNIYQHRFNFFPENPAFSAWGTSGSQGQQTQSSAYGSSYTYPPSSLGGTVVDGQPGFHSDTLSKAPGMNSLEQGMVGLKIGDVSSSAVKTVGSVVSSVALTGVLSGNGGTNVNMPVSKPTSWAAIASKPAKPQPKMKTKSGPVMGGGLPPPPIKHNMDIGTWDNKGPVPKAPVPQQAPSPQAAPQPQQVAQPLPAQPPALAQPQYQSPQQPPQTRWVAPRNRNAAFGQSGGAGSDSNSPGNVQPNSAPSVESHPVLEKLKAAHSYNPKEFEWNLKSGRVFIIKSYSEDDIHRSIKYSIWCSTEHGNKRLDSAFRCMSSKGPVYLLFSVNGSGHFCGVAEMKSPVDYGTSAGVWSQDKWKGKFDVQWIFVKDVPNNQLRHIRLENNDNKPVTNSRDTQEVPLEKAKQVLKIISSYKHTTSIFDDFAHYEKRQEEEEVVRKERQSRNKQ
Take B3: the binding result in assay [4] is listed as “binds”.
